The text below walks through data of paper PMC11773481.

Sequences of proteins named here, by UniProt entry; tags and fusion partners are left off. A change or cut given only in a name is not applied to a line headed by its entry. A line that says so, or that is headed by a name, gives the form on record, which may keep a tag or linker.
UniProt Q86TI2: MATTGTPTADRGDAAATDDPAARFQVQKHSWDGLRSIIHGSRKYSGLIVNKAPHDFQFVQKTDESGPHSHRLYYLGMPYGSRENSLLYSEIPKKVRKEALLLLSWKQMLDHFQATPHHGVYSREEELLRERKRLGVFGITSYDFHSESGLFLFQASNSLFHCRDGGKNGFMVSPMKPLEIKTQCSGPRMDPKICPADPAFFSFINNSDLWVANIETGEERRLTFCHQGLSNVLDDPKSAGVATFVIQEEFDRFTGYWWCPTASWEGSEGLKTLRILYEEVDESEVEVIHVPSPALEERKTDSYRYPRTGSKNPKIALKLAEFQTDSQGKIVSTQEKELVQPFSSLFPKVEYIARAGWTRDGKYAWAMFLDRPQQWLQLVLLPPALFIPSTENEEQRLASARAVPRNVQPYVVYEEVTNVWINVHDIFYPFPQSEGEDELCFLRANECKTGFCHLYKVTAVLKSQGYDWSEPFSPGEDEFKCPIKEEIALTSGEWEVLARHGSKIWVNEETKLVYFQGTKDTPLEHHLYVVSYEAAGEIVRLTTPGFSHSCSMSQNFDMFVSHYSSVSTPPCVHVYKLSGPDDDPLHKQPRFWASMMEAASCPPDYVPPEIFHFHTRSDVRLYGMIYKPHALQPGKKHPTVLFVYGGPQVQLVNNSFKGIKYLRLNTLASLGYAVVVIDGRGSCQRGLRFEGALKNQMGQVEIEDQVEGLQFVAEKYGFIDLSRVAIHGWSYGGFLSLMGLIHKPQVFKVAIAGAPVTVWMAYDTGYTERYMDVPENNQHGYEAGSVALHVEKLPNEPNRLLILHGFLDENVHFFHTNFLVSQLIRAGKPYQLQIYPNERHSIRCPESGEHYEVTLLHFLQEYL
FLAG-tagged DPP9 Motif 1 AAAA mutant (Q86TI2, form named): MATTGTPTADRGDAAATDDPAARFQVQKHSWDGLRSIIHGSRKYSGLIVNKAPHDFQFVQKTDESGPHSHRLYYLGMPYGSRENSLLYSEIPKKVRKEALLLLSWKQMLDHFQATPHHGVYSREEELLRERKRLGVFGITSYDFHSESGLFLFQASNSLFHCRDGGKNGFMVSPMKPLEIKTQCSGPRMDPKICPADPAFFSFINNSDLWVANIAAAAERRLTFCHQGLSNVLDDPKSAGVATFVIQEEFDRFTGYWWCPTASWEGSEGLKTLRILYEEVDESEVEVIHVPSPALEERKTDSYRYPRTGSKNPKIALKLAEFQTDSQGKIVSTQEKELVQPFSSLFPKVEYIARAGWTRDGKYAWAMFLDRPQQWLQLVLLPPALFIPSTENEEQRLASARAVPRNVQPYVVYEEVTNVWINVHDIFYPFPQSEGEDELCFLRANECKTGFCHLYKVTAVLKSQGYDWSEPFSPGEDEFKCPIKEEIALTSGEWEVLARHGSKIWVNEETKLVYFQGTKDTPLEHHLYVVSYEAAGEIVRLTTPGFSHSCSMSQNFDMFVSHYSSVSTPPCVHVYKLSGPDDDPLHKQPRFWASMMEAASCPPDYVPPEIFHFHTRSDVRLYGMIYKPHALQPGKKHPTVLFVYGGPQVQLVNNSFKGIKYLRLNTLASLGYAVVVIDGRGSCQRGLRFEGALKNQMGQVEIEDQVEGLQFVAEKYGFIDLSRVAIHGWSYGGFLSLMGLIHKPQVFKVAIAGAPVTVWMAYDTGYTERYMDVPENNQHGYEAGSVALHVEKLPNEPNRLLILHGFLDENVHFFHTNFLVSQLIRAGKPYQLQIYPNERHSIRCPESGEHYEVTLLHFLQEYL
FLAG-tagged DPP9 Motif 1 EAGA mutant (Q86TI2, form named): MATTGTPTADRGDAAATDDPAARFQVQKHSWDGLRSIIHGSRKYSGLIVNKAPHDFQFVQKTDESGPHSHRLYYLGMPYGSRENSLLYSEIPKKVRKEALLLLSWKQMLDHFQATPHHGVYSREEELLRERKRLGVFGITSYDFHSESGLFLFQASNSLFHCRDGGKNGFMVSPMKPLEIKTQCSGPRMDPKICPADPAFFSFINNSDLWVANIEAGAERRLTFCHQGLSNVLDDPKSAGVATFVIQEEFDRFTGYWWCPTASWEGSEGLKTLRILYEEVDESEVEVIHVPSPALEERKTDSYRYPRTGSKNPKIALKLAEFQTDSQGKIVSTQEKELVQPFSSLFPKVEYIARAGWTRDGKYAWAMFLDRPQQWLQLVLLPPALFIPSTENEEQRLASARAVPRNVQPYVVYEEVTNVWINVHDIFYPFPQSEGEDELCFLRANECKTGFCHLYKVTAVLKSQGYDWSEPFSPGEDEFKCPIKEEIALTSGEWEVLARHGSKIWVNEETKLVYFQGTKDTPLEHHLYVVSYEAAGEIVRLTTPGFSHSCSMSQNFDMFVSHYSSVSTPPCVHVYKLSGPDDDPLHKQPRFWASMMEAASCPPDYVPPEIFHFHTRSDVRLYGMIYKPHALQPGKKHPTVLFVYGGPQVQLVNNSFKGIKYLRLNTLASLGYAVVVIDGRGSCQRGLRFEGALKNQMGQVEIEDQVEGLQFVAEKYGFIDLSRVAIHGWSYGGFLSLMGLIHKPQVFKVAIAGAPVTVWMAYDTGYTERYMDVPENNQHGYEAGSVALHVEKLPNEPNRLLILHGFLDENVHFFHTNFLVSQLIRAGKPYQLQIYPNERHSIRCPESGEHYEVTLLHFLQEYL
FLAG-tagged DPP9 Motif 1 deletion (Q86TI2, form named): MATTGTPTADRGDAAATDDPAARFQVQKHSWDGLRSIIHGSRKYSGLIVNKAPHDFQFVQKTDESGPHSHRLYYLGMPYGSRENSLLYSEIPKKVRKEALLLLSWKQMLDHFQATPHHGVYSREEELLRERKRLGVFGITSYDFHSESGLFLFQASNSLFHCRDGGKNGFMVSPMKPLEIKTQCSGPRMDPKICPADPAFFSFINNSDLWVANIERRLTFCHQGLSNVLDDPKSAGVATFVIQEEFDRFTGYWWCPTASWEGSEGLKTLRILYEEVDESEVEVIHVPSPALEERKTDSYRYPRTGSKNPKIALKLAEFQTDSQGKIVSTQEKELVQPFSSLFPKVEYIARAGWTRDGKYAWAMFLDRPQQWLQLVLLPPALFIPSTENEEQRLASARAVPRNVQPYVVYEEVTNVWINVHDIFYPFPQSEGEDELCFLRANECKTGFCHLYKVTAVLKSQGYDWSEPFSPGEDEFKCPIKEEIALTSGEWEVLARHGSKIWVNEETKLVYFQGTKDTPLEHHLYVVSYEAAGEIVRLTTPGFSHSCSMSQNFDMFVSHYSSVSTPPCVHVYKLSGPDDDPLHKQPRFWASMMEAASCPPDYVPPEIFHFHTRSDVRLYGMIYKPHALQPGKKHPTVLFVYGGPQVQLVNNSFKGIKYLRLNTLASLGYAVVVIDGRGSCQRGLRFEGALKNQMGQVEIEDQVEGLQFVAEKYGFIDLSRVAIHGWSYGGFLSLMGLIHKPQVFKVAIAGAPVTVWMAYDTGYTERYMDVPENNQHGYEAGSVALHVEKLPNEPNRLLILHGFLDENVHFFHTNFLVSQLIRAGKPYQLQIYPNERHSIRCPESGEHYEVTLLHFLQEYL
FLAG-tagged DPP9 Motif 2 deletion (Q86TI2, form named): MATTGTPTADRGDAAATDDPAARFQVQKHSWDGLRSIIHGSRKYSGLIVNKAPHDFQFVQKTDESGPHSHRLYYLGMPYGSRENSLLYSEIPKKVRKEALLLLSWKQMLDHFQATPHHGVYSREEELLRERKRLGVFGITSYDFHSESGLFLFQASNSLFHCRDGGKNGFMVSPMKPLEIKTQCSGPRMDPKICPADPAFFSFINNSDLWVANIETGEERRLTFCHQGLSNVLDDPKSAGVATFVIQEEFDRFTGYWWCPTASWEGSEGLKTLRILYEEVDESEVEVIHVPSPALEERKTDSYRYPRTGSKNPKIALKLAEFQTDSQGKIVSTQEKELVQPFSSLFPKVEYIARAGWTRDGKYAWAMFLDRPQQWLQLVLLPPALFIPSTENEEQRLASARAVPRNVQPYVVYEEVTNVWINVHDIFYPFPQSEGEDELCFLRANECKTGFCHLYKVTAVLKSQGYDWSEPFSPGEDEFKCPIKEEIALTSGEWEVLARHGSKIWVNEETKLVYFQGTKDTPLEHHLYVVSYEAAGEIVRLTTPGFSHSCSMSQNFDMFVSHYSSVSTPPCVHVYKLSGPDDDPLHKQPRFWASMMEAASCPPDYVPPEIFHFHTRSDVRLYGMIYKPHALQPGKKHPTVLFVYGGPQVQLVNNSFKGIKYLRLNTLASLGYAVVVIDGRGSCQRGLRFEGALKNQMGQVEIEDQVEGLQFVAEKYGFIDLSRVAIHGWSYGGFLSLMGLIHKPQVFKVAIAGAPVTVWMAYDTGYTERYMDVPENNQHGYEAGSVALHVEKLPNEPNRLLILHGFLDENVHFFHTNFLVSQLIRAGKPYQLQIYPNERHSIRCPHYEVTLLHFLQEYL
FLAG-tagged DPP9 Motif 2 AAAA mutant (Q86TI2, form named): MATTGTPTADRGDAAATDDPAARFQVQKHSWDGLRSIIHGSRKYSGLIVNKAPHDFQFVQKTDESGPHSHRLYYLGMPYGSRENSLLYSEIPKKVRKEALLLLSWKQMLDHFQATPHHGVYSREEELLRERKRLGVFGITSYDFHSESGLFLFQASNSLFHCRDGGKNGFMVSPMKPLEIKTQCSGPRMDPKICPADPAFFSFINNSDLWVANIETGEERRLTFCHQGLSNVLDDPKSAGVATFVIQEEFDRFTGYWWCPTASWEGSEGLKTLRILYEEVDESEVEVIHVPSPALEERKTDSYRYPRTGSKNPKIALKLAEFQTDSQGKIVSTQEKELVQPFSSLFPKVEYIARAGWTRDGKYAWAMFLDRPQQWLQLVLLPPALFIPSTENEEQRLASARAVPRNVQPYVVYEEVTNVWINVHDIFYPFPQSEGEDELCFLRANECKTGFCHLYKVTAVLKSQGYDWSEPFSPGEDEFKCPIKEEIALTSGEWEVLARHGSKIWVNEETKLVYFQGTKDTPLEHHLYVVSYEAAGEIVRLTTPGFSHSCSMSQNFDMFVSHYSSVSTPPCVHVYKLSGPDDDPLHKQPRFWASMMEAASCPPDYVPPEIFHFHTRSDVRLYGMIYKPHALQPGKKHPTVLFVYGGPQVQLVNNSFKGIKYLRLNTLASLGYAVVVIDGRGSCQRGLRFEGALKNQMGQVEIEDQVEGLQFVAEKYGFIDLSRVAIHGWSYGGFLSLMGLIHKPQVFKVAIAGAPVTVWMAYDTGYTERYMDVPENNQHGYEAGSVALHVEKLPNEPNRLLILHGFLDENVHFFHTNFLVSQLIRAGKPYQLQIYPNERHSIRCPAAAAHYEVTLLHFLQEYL
UniProt Q9Y2G2: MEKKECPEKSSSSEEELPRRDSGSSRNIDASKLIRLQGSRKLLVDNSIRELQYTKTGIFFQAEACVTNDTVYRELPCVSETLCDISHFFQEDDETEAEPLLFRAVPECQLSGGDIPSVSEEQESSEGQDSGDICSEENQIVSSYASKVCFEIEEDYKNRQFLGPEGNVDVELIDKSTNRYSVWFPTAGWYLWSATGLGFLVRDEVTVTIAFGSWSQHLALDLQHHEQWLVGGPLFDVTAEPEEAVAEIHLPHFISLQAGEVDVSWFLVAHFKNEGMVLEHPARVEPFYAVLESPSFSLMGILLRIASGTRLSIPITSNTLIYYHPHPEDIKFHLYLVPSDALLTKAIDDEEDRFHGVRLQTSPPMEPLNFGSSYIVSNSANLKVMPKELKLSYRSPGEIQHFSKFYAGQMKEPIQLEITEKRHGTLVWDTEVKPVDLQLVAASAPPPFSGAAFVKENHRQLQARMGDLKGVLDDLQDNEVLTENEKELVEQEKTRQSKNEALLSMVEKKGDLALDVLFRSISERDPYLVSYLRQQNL
UniProt Q14145: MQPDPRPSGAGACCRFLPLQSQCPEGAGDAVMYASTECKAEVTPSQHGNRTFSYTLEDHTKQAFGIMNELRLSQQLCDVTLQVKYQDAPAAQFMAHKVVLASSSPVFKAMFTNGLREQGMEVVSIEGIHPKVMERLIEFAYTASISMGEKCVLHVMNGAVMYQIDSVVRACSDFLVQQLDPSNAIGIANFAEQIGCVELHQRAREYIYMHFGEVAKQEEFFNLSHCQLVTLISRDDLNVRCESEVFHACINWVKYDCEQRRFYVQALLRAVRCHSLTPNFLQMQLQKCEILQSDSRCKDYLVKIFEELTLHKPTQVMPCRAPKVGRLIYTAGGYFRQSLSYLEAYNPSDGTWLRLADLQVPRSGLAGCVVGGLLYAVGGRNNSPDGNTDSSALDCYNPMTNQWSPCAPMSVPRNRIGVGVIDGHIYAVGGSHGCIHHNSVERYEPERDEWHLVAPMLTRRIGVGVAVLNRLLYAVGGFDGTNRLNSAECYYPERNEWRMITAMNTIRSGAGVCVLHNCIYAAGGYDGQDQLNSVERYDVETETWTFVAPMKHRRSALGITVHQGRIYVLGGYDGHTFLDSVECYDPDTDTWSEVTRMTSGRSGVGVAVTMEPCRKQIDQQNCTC

No constants are given. Whether binding was seen depends on the method and setting. For part of these data: In cells and extracts the contact can be indirect. Some results given as binding are weak or reduced against the parent protein; the word gives no strength.

Assay [1] addresses FLAG-tagged DPP9 Motif 1 AAAA mutant (UniProt Q86TI2). In words: native gel or EMSA; Blue Native-PAGE (4 to 16% NativePage, 0.25% G-250) of anti-FLAG agarose purified DPP9 variants from DPP8/9−/− HEK 293T cells, immunoblot; both purified. In general terms: A gel shift assay detects complexes by their altered migration in electrophoresis.
In assay [2] the target is FLAG-tagged DPP9 Motif 1 EAGA mutant (UniProt Q86TI2). Described as above.
Assay [3] concerns the target FLAG-tagged DPP9 Motif 1 deletion (UniProt Q86TI2). The description is as above.
For assay [4], the target named is FLAG-tagged DPP9 Motif 2 deletion (UniProt Q86TI2). The description is as above.
The target in a further assay is DPP9 C844G (UniProt Q86TI2). Description: co-IP; proteins transiently expressed in DPP8/9−/− HEK 293T cells; clarified lysates on anti-FLAG M2 agarose 1 h at 4 °C, PBS washes, 3X-FLAG peptide elution, immunoblot; VbP (10 μΜ) on cells or DTT (10 mM) on beads had no effect. Background: A western blot detects proteins with antibodies after separation by electrophoresis.

Another assay deals with DPP9 C844I (UniProt Q86TI2). Described as above.
Another assay addresses DPP9 C844A (UniProt Q86TI2). Described as above.
The next assay concerns the target DPP9 C844R (UniProt Q86TI2). The assay is described as above.
For the next assay, the target named is DPP9 C844M (UniProt Q86TI2). The assay is described as above.
In a further assay the target is DPP9 C844Q (UniProt Q86TI2). The description is as above.
In another assay the target is FLAG-tagged CARD8 (UniProt Q9Y2G2). Described as above.
Assay [5] has as its target FLAG-tagged DPP9 Motif 1 AAAA mutant (UniProt Q86TI2). Described as above.
Assay [6] has as its target FLAG-tagged DPP9 Motif 1 EAGA mutant (UniProt Q86TI2). Described as above.
A further assay addresses FLAG-tagged DPP8 (UniProt Q6V1X1). Described as above.
Assay [7] addresses FLAG-tagged DPP9 Motif 2 AAAA mutant (UniProt Q86TI2). The description is as above.
Assay [8] concerns the target FLAG-tagged DPP9 Motif 2 deletion (UniProt Q86TI2). The description is as above.
In assay [9] the target is FLAG-tagged DPP9 Motif 1 deletion (UniProt Q86TI2). Described as above.
The target of assay [10] is FLAG-tagged DPP9 Motif 2 EAGA mutant (UniProt Q86TI2). The assay is described as above.

Turning to “FLAG-tagged DPP9 Motif 1 AAAA mutant (from UniProt Q86TI2 1-863) (enzyme)”, in [1], the binding entry is recorded as “no binding”.
Regarding “FLAG-tagged DPP9 Motif 1 EAGA mutant (from UniProt Q86TI2 1-863) (enzyme)”, the binding result in assay [2] is given as “no binding”.
On to “FLAG-tagged DPP9 Motif 1 deletion (from UniProt Q86TI2 1-863) (enzyme)”, for which the binding result in assay [3] is “no binding”.
As for “FLAG-tagged DPP9 Motif 2 deletion (from UniProt Q86TI2 1-863) (enzyme)”, the binding result in assay [4] is “no binding”.
As to “KEAP1 as used in Figure 5E–G (from UniProt Q14145 1-624)”, the binding result with DPP9 C844G, with DPP9 C844I, in the assay with DPP9 C844A, with DPP9 C844R, in the assay with DPP9 C844M and with DPP9 C844Q was “no binding” each time.
For “V5-tagged DPP9 (from UniProt Q86TI2 1-863) (enzyme)”, in the assay with FLAG-tagged CARD8, the binding result is reported as “binds”.
As to “endogenous KEAP1 (from UniProt Q14145 1-624)”, the binding result was “binds” in assay [5]; “binds” in [6]; “no binding” in the assay with FLAG-tagged DPP8; “no binding” in [7]; “no binding” in assay [8]; “binds” in [9]. For the same substance, the binding result in assay [10] is recorded as “no binding”.
